Consider one molecule from PMC3598994.

These are yes or no findings as the source states them, for the method shown. Binding seen in cells or lysates may run through a third protein. For some assays here: A result given as binding can be weak or reduced; the word gives no strength. Tags and fused reporters may be left off the sequences shown.

Test [1] deals with GST-substrate binding domain of GRP78/BiP. The experiment in a line: pull-down; 10 μg of GST-fused GRP78 domain incubated with 500 μg of lysate of HEK-293 cells transfected with HA-Bag5; western blot with anti-HA; only the target purified. (In western blotting, separated proteins are transferred to a membrane and probed.)
The target of test [2] is GST-ATPase domain of GRP78/BiP. The test is described as above.

B1: HA-Bag5 (protein, UniProt Q9UL15 1-447)
chain: MDMGNQHPSISRLQEIQKEVKSVEQQVIGFSGLSDDKNYKKLERILTKQLFEIDSVDTEGKGDIQQARKRAAQETERLLKELEQNANHPHRIEIQNIFEEAQSLVREKIVPFYNGGNCVTDEFEEGIQDIILRLTHVKTGGKISLRKARYHTLTKICAVQEIIEDCMKKQPSLPLSEDAHPSVAKINFVMCEVNKARGVLIALLMGVNNNETCRHLSCVLSGLIADLDALDVCGRTEIRNYRREVVEDINKLLKYLDLEEEADTTKAFDLRQNHSILKIEKVLKRMREIKNELLQAQNPSELYLSSKTELQGLIGQLDEVSLEKNPCIREARRRAVIEVQTLITYIDLKEALEKRKLFACEEHPSHKAVWNVLGNLSEIQGEVLSFDGNRTDKNYIRLEELLTKQLLALDAVDPQGEEKCKAARKQAVRLAQNILSYLDLKSDEWEY
Consider B1, for which the binding result in test [1] is “no binding”; in test [2] it was “binds”.
